Data source: PubChem BioAssay AID1159584 (Peter MacCallum Cancer Centre, 2016)

Screen: 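Genes whose loss is lethal only together with E-cadherin loss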 (primary screen)
System: human MCF10A breast epithelial cells, parental and CDH1-null
Reagent: siRNA against human genes
Read-out: 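ATP luminescence (CellTiter-Glo) viability per line relative to mean mock wells over all plates, and the ratio of CDH1-null to parental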
Scale: CDH1-null / parental viability ratio: higher = CDH1-null cells survive relatively better than parental; CDH1-null viability vs mock: higher = more viable CDH1-null cells
Units: CDH1-null viability vs mock in fraction of mock
In all, the deposit lists about 18,000 reagents; shown is a random part of them. Further read-outs or replicates are left out here. Not given: the amount of reagent, the time to read-out.

What is on record for BCAS2 (GeneID 10286)?
CDH1-null / parental viability ratio: 1.02; CDH1-null viability vs mock: 0.88

With HPCAL4 (GeneID 51440), what does the deposit list?
CDH1-null / parental viability ratio: 1.02; CDH1-null viability vs mock: 0.64

Which result is listed for NME8 (GeneID 51314)?
CDH1-null / parental viability ratio: 1.09; CDH1-null viability vs mock: 1.16

Which result is listed for OR2W1 (GeneID 26692)?
CDH1-null / parental viability ratio: 0.88; CDH1-null viability vs mock: 0.38

With TULP3 (GeneID 7289), what was measured?
CDH1-null / parental viability ratio: 0.86; CDH1-null viability vs mock: 0.6

How did the screen score CSNK1A1 (GeneID 1452)?
CDH1-null / parental viability ratio: 0.89; CDH1-null viability vs mock: 0.76

With PLAGL1 (GeneID 5325), what was measured?
CDH1-null / parental viability ratio: 0.92; CDH1-null viability vs mock: 0.68

For ANTXR2 (GeneID 118429), what does the deposit list?
CDH1-null / parental viability ratio: 1.12; CDH1-null viability vs mock: 1

With SEMA6A (GeneID 57556), how do the results read?
CDH1-null / parental viability ratio: 1.12; CDH1-null viability vs mock: 0.76

What is on record for NUPR1 (GeneID 26471)?
CDH1-null / parental viability ratio: 0.64; CDH1-null viability vs mock: 0.5

How did the screen score GRHL2 (GeneID 79977)?
CDH1-null / parental viability ratio: 1.15; CDH1-null viability vs mock: 0.7

Which result is listed for MSI2 (GeneID 124540)?
CDH1-null / parental viability ratio: 0.96; CDH1-null viability vs mock: 0.75

For LCP1 (GeneID 3936), what does the deposit list?
CDH1-null / parental viability ratio: 1.15; CDH1-null viability vs mock: 0.86

With PDK3 (GeneID 5165), how do the results read?
CDH1-null / parental viability ratio: 1.11; CDH1-null viability vs mock: 0.82

Which result is listed for CHKA (GeneID 1119)?
CDH1-null / parental viability ratio: 0.87; CDH1-null viability vs mock: 0.66

What did the screen give for GJA1 (GeneID 2697)?
CDH1-null / parental viability ratio: 1.01; CDH1-null viability vs mock: 1.12

How did the screen score CFL1 (GeneID 1072)?
CDH1-null / parental viability ratio: 0.64; CDH1-null viability vs mock: 0.34

Which result is listed for RFX3 (GeneID 5991)?
CDH1-null / parental viability ratio: 0.82; CDH1-null viability vs mock: 0.7

What is on record for RUFY1 (GeneID 80230)?
CDH1-null / parental viability ratio: 0.98; CDH1-null viability vs mock: 0.98

For ERCC3 (GeneID 2071), how do the results read?
CDH1-null / parental viability ratio: 0.86; CDH1-null viability vs mock: 0.71

With PXN (GeneID 5829), what was measured?
CDH1-null / parental viability ratio: 0.82; CDH1-null viability vs mock: 0.62

With FGFR1OP2 (GeneID 26127), what does the deposit list?
CDH1-null / parental viability ratio: 0.97; CDH1-null viability vs mock: 0.75

Which result is listed for CTSF (GeneID 8722)?
CDH1-null / parental viability ratio: 1.09; CDH1-null viability vs mock: 0.94

With RAB30 (GeneID 27314), what was measured?
CDH1-null / parental viability ratio: 1.04; CDH1-null viability vs mock: 1.02

What did the screen give for PRPF3 (GeneID 9129)?
CDH1-null / parental viability ratio: 1.4; CDH1-null viability vs mock: 0.7

With PSMB4 (GeneID 5692), what was measured?
CDH1-null / parental viability ratio: 1.08; CDH1-null viability vs mock: 0.52

What is on record for ARR3 (GeneID 407)?
CDH1-null / parental viability ratio: 1.29; CDH1-null viability vs mock: 0.89

What is on record for PGP (GeneID 283871)?
CDH1-null / parental viability ratio: 1.83; CDH1-null viability vs mock: 1.28

Which result is listed for ZMYND15 (GeneID 84225)?
CDH1-null / parental viability ratio: 1.11; CDH1-null viability vs mock: 0.81

For ZFP37 (GeneID 7539), how do the results read?
CDH1-null / parental viability ratio: 0.83; CDH1-null viability vs mock: 0.68

How did the screen score SLC49A3 (GeneID 84179)?
CDH1-null / parental viability ratio: 1.14; CDH1-null viability vs mock: 0.87

For CACNB3 (GeneID 784), what was measured?
CDH1-null / parental viability ratio: 1.21; CDH1-null viability vs mock: 0.8

What is on record for ADD1 (GeneID 118)?
CDH1-null / parental viability ratio: 0.95; CDH1-null viability vs mock: 0.84

For PIAS2 (GeneID 9063), what does the deposit list?
CDH1-null / parental viability ratio: 0.9; CDH1-null viability vs mock: 0.44

With DMRT2 (GeneID 10655), what does the deposit list?
CDH1-null / parental viability ratio: 1.12; CDH1-null viability vs mock: 1.11

How did the screen score CYB5R1 (GeneID 51706)?
CDH1-null / parental viability ratio: 0.97; CDH1-null viability vs mock: 0.76

With POC1A (GeneID 25886), how do the results read?
CDH1-null / parental viability ratio: 1.31; CDH1-null viability vs mock: 0.68

For TCF20 (GeneID 6942), how do the results read?
CDH1-null / parental viability ratio: 1.04; CDH1-null viability vs mock: 1.12

For INSIG1 (GeneID 3638), what does the deposit list?
CDH1-null / parental viability ratio: 1.01; CDH1-null viability vs mock: 0.87

What is on record for CIMAP1A (GeneID 113746)?
CDH1-null / parental viability ratio: 0.74; CDH1-null viability vs mock: 0.52

For TUBB1 (GeneID 81027), what was measured?
CDH1-null / parental viability ratio: 0.8; CDH1-null viability vs mock: 0.53

For SLC35B3 (GeneID 51000), how do the results read?
CDH1-null / parental viability ratio: 1.09; CDH1-null viability vs mock: 0.7

What did the screen give for ZNF513 (GeneID 130557)?
CDH1-null / parental viability ratio: 0.94; CDH1-null viability vs mock: 0.45

Which result is listed for SYP (GeneID 6855)?
CDH1-null / parental viability ratio: 1.16; CDH1-null viability vs mock: 0.74

How did the screen score EFCAB13 (GeneID 124989)?
CDH1-null / parental viability ratio: 0.58; CDH1-null viability vs mock: 0.64

7 entries from above, arranged by “CDH1-null / parental viability ratio”, ascending:
CFL1 (GeneID 1072) — CDH1-null / parental viability ratio: 0.64; CDH1-null viability vs mock: 0.34
RFX3 (GeneID 5991) — CDH1-null / parental viability ratio: 0.82; CDH1-null viability vs mock: 0.7
PXN (GeneID 5829) — CDH1-null / parental viability ratio: 0.82; CDH1-null viability vs mock: 0.62
ERCC3 (GeneID 2071) — CDH1-null / parental viability ratio: 0.86; CDH1-null viability vs mock: 0.71
FGFR1OP2 (GeneID 26127) — CDH1-null / parental viability ratio: 0.97; CDH1-null viability vs mock: 0.75
RUFY1 (GeneID 80230) — CDH1-null / parental viability ratio: 0.98; CDH1-null viability vs mock: 0.98
GJA1 (GeneID 2697) — CDH1-null / parental viability ratio: 1.01; CDH1-null viability vs mock: 1.12
